US20230312680A1
No constants are given. Whether binding was seen depends on the method and setting. Binding calls can cover weak binding; strength is not graded here. Ends that are not written are not given here.

Target: HLA-B*07:02 (human)
Test: UV-ligand exchange, b2m ELISA; grade of exchange yield

Row | Binder | binding
1 | NPSSTTTEF [… (SEQ ID No 350)] | binds
2 | FPHPEMTTSM [… (SEQ ID No 331)] | binds
3 | LPLGTSMTF [… (SEQ ID No 342)] | binds
4 | LPAGTTGSLVF [… (SEQ ID No 339)] | binds
5 | HVTKTQATF [… (SEQ ID No 338)] | binds
6 | HPVETSSAL [… (SEQ ID No 337)] | binds
7 | LPTQTTSSL [… (SEQ ID No 344)] | binds
8 | MPSLSEAMTSF [… (SEQ ID No 349)] | binds
9 | LPEISTRTM [… (SEQ ID No 340)] | binds
10 | HPDPVGPGL [… (SEQ ID No 335)] | binds
11 | LPTSESLVSF [… (SEQ ID No 345)] | binds
12 | LPSVSGVKTTF [… (SEQ ID No 343)] | binds
13 | FPYSEVTTL [… (SEQ ID No 334)] | binds
14 | PGGTRQSL [PGGTRQSL (SEQ ID No 370)] | binds
15 | FPHSEMTTL [… (SEQ ID No 332)] | binds
16 | HPKTESATPAAY [… (SEQ ID No 336)] | binds
17 | MPLTTGSQGM [… (SEQ ID No 347)] | binds
18 | FPHSEMTTVM [… (SEQ ID No 333)] | binds
19 | MPNSAIPFSM [… (SEQ ID No 348)] | binds
20 | LPLDTSTTL [… (SEQ ID No 341)] | binds
21 | LPWDTSTTLF [… (SEQ ID No 346)] | binds
22 | FPFVTGSTEM [… (SEQ ID No 330)] | binds
23 | IPTYGRTF [IPTYGRTF (SEQ ID No 380)] | binds

Other lines, results leading:

Row | binding | Binder
24 | binds | SPAETSTNM [… (SEQ ID No 352)]
25 | binds | SPTHVTQSL [… (SEQ ID No 361)]
26 | binds | IPRNPPPTLL [… (SEQ ID No 372)]
27 | binds | SPAMTTPSL [… (SEQ ID No 353)]
28 | binds | FPHSEMTTV [… (SEQ ID No 369)]
29 | binds | TPLATTQRF [… (SEQ ID No 364)]
30 | binds | TPSVVTEGF [… (SEQ ID No 367)]
31 | binds | SPALHIGSV [… (SEQ ID No 385)]
32 | binds | NPIGDTGVKF [… (SEQ ID No 374)]
33 | binds | LYVDGFTHW [… (SEQ ID No 371)]
34 | binds | RPRSPAGQVAAA [… (SEQ ID No 377)]
35 | binds | RPRSPAGQVA [… (SEQ ID No 376)]
36 | binds | LPEQTPLAF [… (SEQ ID No 381)]
37 | binds | VPTPVFPTM [… (SEQ ID No 368)]
38 | binds | SPSPVPTTL [… (SEQ ID No 357)]
39 | binds | TAKTPDATF [… (SEQ ID No 363)]

Row | binding | Binder
40 | binds | AAASPLLLL [… (SEQ ID No 375)]
41 | binds | SPVPVTSLF [… (SEQ ID No 362)]
42 | binds | SPLVTSHIM [… (SEQ ID No 355)]
43 | binds | SPLPVTSLL [… (SEQ ID No 354)]
44 | binds | YPGLRGSPM [… (SEQ ID No 384)]
45 | binds | SPSVSSNTY [… (SEQ ID No 360)]
46 | binds | TPLATTQRFTY [… (SEQ ID No 365)]
47 | binds | SPSPVTSTL [… (SEQ ID No 358)]
48 | binds | RPRSPAGQVAA [… (SEQ ID No 378)]
49 | binds | SPNEFYFTV [… (SEQ ID No 356)]
50 | binds | RPRALRDLRIL [… (SEQ ID No 373)]
51 | binds | GPFPLVYVL [… (SEQ ID No 379)]
52 | binds | SPSTIKLTM [… (SEQ ID No 359)]
53 | binds | TPTKETVSL [… (SEQ ID No 383)]
54 | binds | NVLTSTPAF [… (SEQ ID No 351)]
55 | binds | SPMHDRWTF [… (SEQ ID No 382)]
